At least one structure is not confirmed: it was looked up by name or label, or the drawing left a doubt. Some entries share one result that the patent states for a list of compounds.
Columns and labels:
Y. pestis C092 = tested on: Y. pestis C092; set-up: species or system BALB/c mice; details: mouse, in vivo
F. tularensis SCHU S4 = tested on: F. tularensis SCHU S4; set-up: species or system BALB/c mice; details: mouse, in vivo
Yersinia pestis = type: cell-based
Bacillus anthracis = type: cell-based
Francisella tularensis = type: cell-based
Burkholderia mallei = type: cell-based

C[C@H]1COc2c(N3CCN(C)CC3)c(F)cc3c(=O)c(C(=O)O)cn1c23 [Levofloxacin, reference compound]
outward signs of plague infection (Y. pestis C092): never showed any outward indication of plague infection
outward signs of tularemia infection (F. tularensis SCHU S4): never showed any outward indication of tularemia infection

CN=C(NC(=N)N1CCN(c2cc3c(cc2F)c(=O)c(C(=O)O)cn3C2CC2)CC1)N1CCN(c2c(F)cc3c(=O)c(C(=O)O)cn4c3c2OCC4C)CC1 (stereo not drawn) [BVS-47A (XX)]
MIC90 (Yersinia pestis): below 4 micrograms/ml
MIC90 (Bacillus anthracis): ≤ 0.25 micrograms/ml
MIC90 (Francisella tularensis): below 4 micrograms/ml
MIC90 (Burkholderia mallei): below 4 micrograms/ml
